One substance from article PMC11791182, “Molecular mechanism targeting condensin for chromosome condensation” (The EMBO Journal, 2024) can be followed below.

Chains of the proteins cited; added tags and fusions are not shown. Lines headed by an entry give the natural chain unless they say otherwise; changes in a name come on top.
UniProt P38170: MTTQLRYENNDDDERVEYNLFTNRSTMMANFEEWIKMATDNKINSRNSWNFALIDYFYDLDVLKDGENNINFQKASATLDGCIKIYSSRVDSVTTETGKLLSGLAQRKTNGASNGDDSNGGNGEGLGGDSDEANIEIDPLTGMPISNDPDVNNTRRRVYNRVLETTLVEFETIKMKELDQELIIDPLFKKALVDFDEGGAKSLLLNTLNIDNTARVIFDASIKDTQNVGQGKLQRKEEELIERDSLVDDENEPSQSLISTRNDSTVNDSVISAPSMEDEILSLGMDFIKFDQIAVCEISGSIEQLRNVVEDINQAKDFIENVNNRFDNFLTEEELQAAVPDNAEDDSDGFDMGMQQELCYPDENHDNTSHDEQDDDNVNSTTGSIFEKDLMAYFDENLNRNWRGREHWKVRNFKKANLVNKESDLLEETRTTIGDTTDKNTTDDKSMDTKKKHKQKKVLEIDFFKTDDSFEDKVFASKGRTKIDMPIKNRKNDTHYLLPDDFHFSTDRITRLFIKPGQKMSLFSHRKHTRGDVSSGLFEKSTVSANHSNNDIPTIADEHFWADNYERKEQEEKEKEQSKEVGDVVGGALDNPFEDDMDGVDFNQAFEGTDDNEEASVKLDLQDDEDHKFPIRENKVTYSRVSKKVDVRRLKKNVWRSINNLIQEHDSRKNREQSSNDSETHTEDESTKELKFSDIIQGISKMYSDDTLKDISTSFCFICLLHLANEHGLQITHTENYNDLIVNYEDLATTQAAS

Holding throughout (experiment): co-IP; purified GFP-Sgo1 fragments held on anti-GFP-coupled beads, incubated with sgo1Δ yeast extract (BRN1-6HA); 25 mM HEPES pH 7.5, 2 mM MgCl2, 15% glycerol, 0.1% NP-40, 150 mM KCl; immunoblot against Brn1-6HA; only the target purified
In general terms: In western blotting, separated proteins are transferred to a membrane and probed.

Test [1] deals with T1, GFP-Sgo1 (350–590) (S. cerevisiae) (UniProt Q08490).
T1 sequence: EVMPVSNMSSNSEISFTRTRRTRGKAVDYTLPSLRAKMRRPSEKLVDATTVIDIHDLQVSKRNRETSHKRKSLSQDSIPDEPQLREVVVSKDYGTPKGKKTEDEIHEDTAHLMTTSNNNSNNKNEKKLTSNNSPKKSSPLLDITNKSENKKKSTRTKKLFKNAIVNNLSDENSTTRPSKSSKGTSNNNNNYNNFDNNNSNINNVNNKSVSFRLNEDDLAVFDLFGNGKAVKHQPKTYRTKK

Test [2] has as its target T2, GFP-Sgo1 (1–130) (S. cerevisiae) (UniProt Q08490).
T2 sequence: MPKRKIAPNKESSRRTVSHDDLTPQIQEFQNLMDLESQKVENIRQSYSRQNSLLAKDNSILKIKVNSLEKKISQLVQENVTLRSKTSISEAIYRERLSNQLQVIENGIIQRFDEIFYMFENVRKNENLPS

Test [3] has as its target T3, GFP-Sgo1 (130–190) (S. cerevisiae) (UniProt Q08490).
T3 sequence: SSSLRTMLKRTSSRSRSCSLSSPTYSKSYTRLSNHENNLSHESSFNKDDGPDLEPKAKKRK

These are yes or no findings as the source states them, for the method shown. Binding seen in cells or lysates may run through a third protein. Some entries that bind do so weakly or less than the wild type. Tags and fused reporters may be left off the sequences shown.

As to “condensin (Brn1-6HA) from sgo1Δ yeast extract (from UniProt P38170 1-754; P38989 1-1170; Q12267 1-1418; Q06680 1-1035; Q06156 1-1176) (complex)”, the binding result in test [1] is reported as “binds”; in test [2], “binds”; in test [3], “no binding”.
